Consider one substance from US20260116943A1 (Zealand Pharma A/S, priority 2021, published 2026).

A short description of the data set: general procedure: Fmoc solid-phase peptide synthesis.

For “H-HGEGTFSSELATILDALAARDFIAWLIATKITDKKKKKK-NH2”, where the note is “purification step, total purification yield”, the step yield is reported as ≥35%. For the same substance, the isolated mass entry (whole synthesis) is reported as “about 1.3 kg”. Further, the “crude HPLC purity” value (whole synthesis, RP-HPLC with UV or MS detection, scale of the general procedure 10 kg peptide resin corresponding to 0.8 mole) is ~45%. The “final HPLC purity” value by setting is: (whole synthesis, RP-HPLC with UV or MS detection, scale of the general procedure 10 kg peptide resin corresponding to 0.8 mole, run 1) 98.2%; (whole synthesis, RP-HPLC with UV or MS detection, scale of the general procedure 10 kg peptide resin corresponding to 0.8 mole, run 2) 89%; (whole synthesis, RP-HPLC with UV or MS detection, scale of the general procedure 10 kg peptide resin corresponding to 0.8 mole, run 3) 96%; (whole synthesis, RP-HPLC with UV or MS detection, scale of the general procedure 10 kg peptide resin corresponding to 0.8 mole, run 4) 98%; (whole synthesis, RP-HPLC, scale of the general procedure 10 kg peptide resin corresponding to 0.8 mole) ≥97.75%.
